# Experimental data taken from PMC7549001.
# By UniProt entry, the sequences of proteins in these tests, tags left out. Where a name states a change or a piece, a line headed by the entry shows the natural chain unless it says otherwise.
# UniProt Q6JAC7: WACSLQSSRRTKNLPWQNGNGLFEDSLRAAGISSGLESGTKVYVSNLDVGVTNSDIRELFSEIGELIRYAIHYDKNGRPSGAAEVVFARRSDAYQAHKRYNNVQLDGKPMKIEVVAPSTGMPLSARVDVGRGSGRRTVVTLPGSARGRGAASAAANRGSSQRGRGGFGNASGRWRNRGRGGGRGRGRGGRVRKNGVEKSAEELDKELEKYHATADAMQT
# No constants are given. Whether binding was seen depends on the method and setting. Binding seen in cells or lysates may run through a third protein. Binding calls can cover weak binding; strength is not graded here. Tags and fused reporters may be left off the sequences shown.
# B1: P25 as BiFC fusion (P25-nYFP and P25-cYFP) (protein, UniProt P09396 1-226)
# chain: MDILIISLKSLGYSRTHKSLDSGPLVVHAVAGAGKSTALRKLILRHPTFTVHTLGVPDKVSIRTRGIQKPGPIPEGNFAILDEYTLDNTTRNSYQALFADPYQAPEFSLEPHFYLETSFRVPRKVADLIAGCGFDFETNSQEEGHLEITGIFKGPLLGKVIAIDEESETTLSKHGVEFVKPCQVTGLEFKVVTVVSAAPIEEIGQSTAFYNAITRSKGLTYVRAGT
# B2: PVX P25 (untagged) (protein, UniProt P09396 1-226)
# chain: B1 chain
# What was measured:
# [1] = biological target: NbALY916-nYFP (Nicotiana benthamiana) (UniProt Q6JAC7); assay: split reporter; BiFC with halves of YFP; agroinfiltration of H2B-RFP transgenic N. benthamiana leaves; fluorescence at 72 hr postinfiltration
# [2] = biological target: NbALY916-GFP (Nicotiana benthamiana) (UniProt Q6JAC7); assay: co-IP; NbALY916-GFP or free GFP with P25 transiently expressed in N. benthamiana; GFP-TRAP_M beads on infiltrated leaf extract; blots with anti-GFP and anti-P25
Binder,binding [1],binding [2]
B1,binds,–
B2,–,binds
